The assay deals with T1, BirA*-cyclin F(WT) (human) (UniProt P41002).
T1 sequence: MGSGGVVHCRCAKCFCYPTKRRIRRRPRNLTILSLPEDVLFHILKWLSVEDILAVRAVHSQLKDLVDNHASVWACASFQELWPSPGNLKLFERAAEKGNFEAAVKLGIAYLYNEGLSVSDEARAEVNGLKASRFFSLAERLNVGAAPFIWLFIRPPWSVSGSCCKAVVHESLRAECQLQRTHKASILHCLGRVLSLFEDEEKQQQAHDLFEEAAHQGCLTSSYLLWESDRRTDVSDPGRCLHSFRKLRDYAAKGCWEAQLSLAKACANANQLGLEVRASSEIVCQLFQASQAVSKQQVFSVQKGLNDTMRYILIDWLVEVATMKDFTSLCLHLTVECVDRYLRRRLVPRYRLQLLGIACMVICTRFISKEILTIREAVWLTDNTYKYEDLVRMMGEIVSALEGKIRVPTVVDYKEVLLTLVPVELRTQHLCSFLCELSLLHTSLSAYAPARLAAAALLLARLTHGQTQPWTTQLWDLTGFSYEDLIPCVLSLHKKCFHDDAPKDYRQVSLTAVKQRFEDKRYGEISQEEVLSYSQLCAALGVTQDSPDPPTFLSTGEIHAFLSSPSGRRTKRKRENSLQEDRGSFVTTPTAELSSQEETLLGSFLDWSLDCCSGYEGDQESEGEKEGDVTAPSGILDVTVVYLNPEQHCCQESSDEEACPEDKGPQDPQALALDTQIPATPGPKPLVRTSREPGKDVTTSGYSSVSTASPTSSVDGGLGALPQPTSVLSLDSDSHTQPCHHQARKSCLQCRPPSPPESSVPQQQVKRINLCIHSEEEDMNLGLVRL
As to the kind of experiment: proximity labelling.

These are yes or no findings as the source states them, for the method shown. In cells and extracts the contact can be indirect. These calls come from enrichment with a bait or labelling near it, and not all partners need be listed.

The values below come from publication doi:10.1101/2020.04.30.071365.

Regarding Casein kinase II (CKII) (enzyme), the binding result is listed as “binds”.
